{"source": "patent US20220273637A1", "about": "“NOVEL PFAR-INHIBITING COMPOUNDS” (UNIVERSITE DE BRETAGNE OCCIDENTALE (UBO), priority 2019, published 2022)", "key": {"PABPN1 aggregates": {"system": "PABPN1 aggregates", "type": "cell-based, murine"}, "[1]": {"system": "PFAR (protein folding activity of ribosome)", "assay": "Inhibition of PFAR in yeast cells (LuxAB luciferase refolding after heat shock)", "type": "cell-based", "details": "luciferase activity at 0, 90 and 150 minutes after heat shock, FIG. 2"}}, "data": [{"compound": "CC(C)(C)c1ccc(C(=O)CCCN2CCC(OC(c3ccccc3)c3ccccc3)CC2)cc1", "note": "[ebastine]", "values": [{"measurement": "activity compared with guanabenz (positive control)", "setting": "PABPN1 aggregates", "result": "more active than guanabenz"}, {"measurement": "concentration from which PFAR is inhibited", "setting": "[1]", "result": "≥ 25", "unit": "µM"}]}]}
